Laboratory results reported in patent US20110319405A1, “Treatment and prevention of diffuse parenchymal lung disease by selective active-site mTOR inhibitors” (The Board of Trustees of the Leland Stanford Junior …, priority 2010, published 2011).

Sequences of proteins named here, by UniProt entry; tags and fusion partners are left off.
UniProt P05771, whole entry, species assumed: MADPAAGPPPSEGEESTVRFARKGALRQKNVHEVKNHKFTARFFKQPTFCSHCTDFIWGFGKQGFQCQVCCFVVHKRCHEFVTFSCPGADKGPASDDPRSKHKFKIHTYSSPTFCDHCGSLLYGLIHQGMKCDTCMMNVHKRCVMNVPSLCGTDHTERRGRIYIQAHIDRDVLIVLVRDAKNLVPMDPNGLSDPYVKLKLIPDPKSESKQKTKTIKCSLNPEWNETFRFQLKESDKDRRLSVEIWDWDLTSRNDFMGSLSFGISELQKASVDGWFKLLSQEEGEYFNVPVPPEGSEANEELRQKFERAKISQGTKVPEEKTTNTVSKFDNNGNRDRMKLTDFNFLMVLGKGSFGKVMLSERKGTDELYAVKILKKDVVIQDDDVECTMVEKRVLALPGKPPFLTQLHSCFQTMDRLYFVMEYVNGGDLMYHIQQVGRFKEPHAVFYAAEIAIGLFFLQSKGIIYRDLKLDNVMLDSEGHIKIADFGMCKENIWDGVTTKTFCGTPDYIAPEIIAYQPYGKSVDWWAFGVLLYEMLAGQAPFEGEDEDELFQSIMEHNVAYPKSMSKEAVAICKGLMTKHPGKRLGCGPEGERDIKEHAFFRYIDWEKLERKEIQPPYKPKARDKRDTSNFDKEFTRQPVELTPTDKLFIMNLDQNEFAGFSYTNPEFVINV

Key:
[1] = tested on: Akt (Ser473 and T308) activation; test: TGF-β-mediated activation of Akt in control lung fibroblasts (Western blot); format: cell-based, human
Procedure: (§1) Cell Culture and Reagents. Lung fibroblasts were isolated from patients undergoing surgical biopsy for the diagnosis of interstitial lung disease or lung transplant for IPF, and non-neoplastic tissue was obtained from patients undergoing surgical lung cancer resection, as described previously (Chang W. T. et al., J Biol Chem., 2001, 276, 2221-7). Fibroblasts were cultured in Dulbecco's modified Eagle's medium (DMEM) supplemented with 10% fetal bovine serum (FBS) at 5% CO2 at 37° C., and were used for studies for up to 5 passages after the initial preparation. For each experiment, cells were plated in culture vessels in DMEM complete medium and cultured until 70-80% in confluence, unless otherwise indicated.
Western Blot Analysis. Western blot analysis and band intensity quantitation were performed as described previously (Chang W. T. et al., J Biol Chem., 2001, 276, 2221-7). Briefly, the protein concentration was measured by Bradford assay (Bio-Rad) according to the manufacturer's instructions. An equal amount of protein was separated by SDS-PAGE and transferred to polyvinylidene difluoride membrane. […] The blot was visualized by enhanced chemiluminescence (GE Healthcare) and analyzed using a Kodak Image Station 4000R system (Carestream Health, Rochester, N.Y.). […]

[2] = tested on: TGF-β-stimulated control lung fibroblasts; test: TGF-β-mediated induction of stromal proteins in control lung fibroblasts (Western blot); format: cell-based, human
Procedure: as §1
Western Blot Analysis. Western blot analysis and band intensity quantitation were performed as described previously (Chang W. T. et al., J Biol Chem., 2001, 276, 2221-7). Briefly, the protein concentration was measured by Bradford assay (Bio-Rad) according to the manufacturer's instructions. An equal amount of protein was separated by SDS-PAGE and transferred to polyvinylidene difluoride membrane. […] The blot was visualized by enhanced chemiluminescence (GE Healthcare) and analyzed using a Kodak Image Station 4000R system (Carestream Health, Rochester, N.Y.).
In further studies, we examined if inhibition of mTORC1 and/or mTORC2 would limit TGF-β-mediated induction of stromal genes. […]

IPF fibroblasts = test: Migration of IPF fibroblasts; format: cell-based, human; settings: FIG. 5
control fibroblasts = test: Migration of control fibroblasts; format: cell-based, human; settings: FIG. 5
[3] = tested on: 219 purified protein kinases; settings: concentration 100-fold higher than its mTOR IC50 value; cited from earlier work
PKC-alpha [4] = target: T1, PKC-alpha (Homo sapiens, UniProt P17252); settings: concentration 100-fold higher than its mTOR IC50 value; cited from earlier work
PKC-beta [5] = target: T2, PKC-beta (Homo sapiens, UniProt P05771); settings: concentration 100-fold higher than its mTOR IC50 value; cited from earlier work
JAK2 [6] = settings: concentration 100-fold higher than its mTOR IC50 value; cited from earlier work
PKC-alpha [7] = target: T1, PKC-alpha; settings: read-out: in vitro IC50 against PKC-alpha; purified protein; cited from earlier work
PKC-beta [8] = target: T2, PKC-beta; settings: purified protein; result in words; cited from earlier work
JAK2 [9] = settings: cited from earlier work

For `CC(C)n1nc(-c2cc3cc(O)ccc3[nH]2)c2c(N)ncnc21` [PP242], the “blocking of TGF-β activation of Akt (Ser473)” value [1] was “blocked”, the “blocking of TGF-β activation of Akt (T308)” value [1] was “blocked” and the “inhibition of TGF-β induction of PAI-1” value [2] was greater than 80%. The “migration of IPF fibroblasts” value (IPF fibroblasts) was “significantly reduced”, the “migration of TGF-β-treated fibroblasts” value (control fibroblasts; TGF-β-treated) was “significantly reduced” and the “migration of unstimulated control fibroblasts” value (control fibroblasts; unstimulated) was “significantly reduced”. For the same compound, the “effect on 219 purified protein kinases” value [3] was “most protein kinases were unaffected”, the “inhibition of PKC-alpha” value (PKC-alpha [4]) was “more than 80%” and the “inhibition of PKC-beta” value (PKC-beta [5]) was “more than 80%”. For the same compound, the “inhibition of JAK2” value (JAK2 [6]) was “more than 80%”, the IC50 (PKC-alpha [7]) was 50 nM and the “in vitro IC50 determination against PKC-beta” value (PKC-beta [8]) was “relatively inactive”. The “in vitro IC50 determination against JAK2” value (JAK2 [9]) was “relatively inactive”.
